Data published in PubChem BioAssay AID590 (National Center for Advancing Translational Sciences (NCATS), 2007).
About 6,500 (11%) of roughly 59,000 compounds were called active. Inconclusive results, whose numbers are uncertain, are shown with a selection of clear calls. No stated cut-off is given here; in the data, active means max dye-equivalent concentration above about 10 nM; inconclusive means mostly about 1.1 nM to 9.6 nM; inactive means weaker than that.

Test: qHTS Assay for Spectroscopic Profiling in A350 Spectral Region
Conditions: Compound autofluorescence, 340/450 nm, Alexa 350 dye-equivalents; stronger effect = higher value

SMILES | max dye-equivalent concentration
C=C(C)CN(CC)C(=O)CSc1nc2ncc(Cl)cc2[nH]1 | inconclusive: 4.5 nM
Cc1ccc(Nc2nc(N)nc(CSc3nnc(-c4ccncc4)o3)n2)cc1 | inconclusive: 1.3 nM
COc1ccccc1NC(=O)CN(C)S(=O)(=O)c1ccc(F)cc1 | inconclusive: 4.5 nM
CCC1=Nc2ccccc2NC2=C1C(=O)CCC2 | inconclusive: 1.9 nM
O=C(OCc1nc2ccccc2s1)C1CCN(C2=NS(=O)(=O)c3ccccc32)CC1 | inconclusive: 3.2 nM
CCOC(=O)c1[nH]c2cc3c(cc2c1NC(=O)CN1CCC(C)CC1)OCO3 | active: 20 nM
O=C(O)c1cccnc1SCC(=O)N1CCCCCC1 | inconclusive: 1.3 nM
COC(=O)C(C)Sc1ccc2nnc(-c3ccc(F)cc3)n2n1 (configuration not stated) | active: 11 nM
CC(=O)NC1(c2ccccc2)CCN(c2nc(C)cc(C)n2)CC1 | inconclusive: 1.4 nM
Cn1c(=O)c2c(nc(CN3CCC(C(N)=O)CC3)n2Cc2ccccc2Cl)n(C)c1=O | inactive
CN(C)CN1C(=O)S/C(=C2/C(=O)N(CN(C)C)c3ccccc32)C1=O | inactive
Fc1cccc(-c2cc3nc4c(c(N5CCN(c6cnccn6)CC5)n3n2)CCCC4)c1 | inconclusive: 7 nM
Cc1cc(C(=O)OCC(=O)Nc2ccc(F)cc2)c(C)o1 | inactive
COc1cccc2sc(Nc3nc(C)c(C(C)=O)s3)nc12 | inconclusive: 2.5 nM
COc1ccc(-c2noc(COc3ccc4ccccc4c3Br)n2)cc1OC | inconclusive: 2.7 nM
COCCCNc1oc(COc2ccc(Cl)cc2Cl)nc1C#N | inconclusive: 4.4 nM
O=C(c1ccco1)N1CCN(C(=O)c2cc(-c3ccccn3)nc3ccccc23)CC1 | inactive
Cc1ccc2[nH]c3c(=O)n(CCCN4CCN(C)CC4)cnc3c2c1 | inconclusive: 1.6 nM
O=C(O)c1cn(-c2ccccc2)nc1-c1ccncc1 | inactive
COc1cc2c(cc1OC)C(COc1ccc3c(C)cc(=O)oc3c1)N(C(=O)c1ccco1)CC2 (configuration not stated) | inconclusive: 3.2 nM
Cc1ccc(-c2nnc(N3CCN(c4ccccn4)CC3)c3ccccc23)cc1 | inconclusive: 9.5 nM
Cc1cc2c(ccc3[nH]onc32)n1 | inactive
COc1ccc(OC)c(-c2nnc(SCC(=O)N3CCOCC3)o2)c1 | inconclusive: 1.5 nM

SMILES | max dye-equivalent concentration
C=CCNC(=O)c1sc(=S)n(-c2ccc(C(=O)OCC)cc2)c1N | inactive
COC(=O)c1nnn(Cc2ccccc2)c1N | inactive
O=C(Oc1cccc2c(O)cccc12)c1ccccc1 | inactive
CC1CCN(c2nc3c(c(=O)n(C)c(=O)n3C)n2CCSc2nc3ccccc3s2)CC1 | inactive
Cc1[nH]c2ccc(CNS(=O)(=O)c3ccc(S(=O)(=O)N4CCOCC4)cc3)cc2c1C | inactive
O=C1CCCN1CCCNc1ncnc2c1[nH]c1ccc(Cl)cc12 | inconclusive: 7.7 nM
COc1ccc(CCCNC(=O)CC#N)cc1OC | inconclusive: 6.4 nM
O=C(c1cccn2c(=O)c3ccc(Cl)cc3nc12)N1CCN(Cc2ccc3c(c2)OCO3)CC1 | active: 330 nM
COCCN(C(=O)C(F)(F)F)C(C(=O)NC1CCCCC1)c1ccco1 (configuration not stated) | inconclusive: 1.4 nM
COCCn1c(=O)c(-c2ccccc2)nc2cnc(OCc3ccccc3)nc21 | inconclusive: 4.5 nM
O=S(=O)(c1ccccc1)N1CN2CN(C1)CN(S(=O)(=O)c1ccccc1)C2 | inactive
CS(=O)(=O)c1ccc(Cl)c(NC(=O)C2CC(=O)N(Cc3ccccc3)C2)c1 (configuration not stated) | inconclusive: 2.2 nM
CCc1c(C)c2ccc(OCC(=O)OC(C)C)c(C)c2oc1=O | inconclusive: 1.1 nM
COc1ccc(/C(O)=C2/C(=O)C(=O)N(CCCC(=O)O)C2c2ccc(OC)c(OC)c2)cc1 (configuration not stated) | inconclusive: 1.9 nM
CN1CCN(/C=C2\SC(=S)NC2=O)CC1 | inconclusive: 9.8 nM
CC(C)CCn1c(=S)[nH]c2ncccc2c1=O | inactive
Oc1cc2ccccc2cc1-c1n[nH]c(=S)o1 | active: 17 nM
O=c1[nH]cnc2scc(C3COc4ccccc4O3)c12 (configuration not stated) | inconclusive: 1.1 nM
COc1ccc(C)cc1S(=O)(=O)N(C)CC(N)=O | inactive
CCOc1ccc2nc(NC(=O)CN3CCC(n4nnc5cc(F)ccc54)CC3)sc2c1 | inactive
CCCC1C2CN(C(C)=O)CC=C2C(C#N)=C(N)C1(C#N)C#N (configuration not stated) | active: 69 nM
COc1cc(OC)cc(-c2cc3nc(C)c(CCC(=O)NC(C)CCc4ccco4)c(C)n3n2)c1 (configuration not stated) | inconclusive: 1.4 nM
CN1c2ccccc2N(C)C1c1ccc2c(c1)OCO2 | inconclusive: 1.6 nM

SMILES | max dye-equivalent concentration
CC1(C)Cc2c(c(-c3ccccc3)[nH]c(=O)c2C#N)CO1 | inconclusive: 6.6 nM
O=C(Nc1ccc(S(=O)(=O)N2CCCCC2)cc1)c1ccncc1 | inactive
O=c1[nH]c(Cc2cccs2)nc2ccccc12 | inactive
COc1ccc2[nH]c3c(=O)n(CCCCC(=O)N4CCC(C(N)=O)CC4)c(=S)[nH]c3c2c1 | active: 10 nM
COc1ccc2nc(N3CCCC(C(=O)NCCCN4CCN(C)CC4)C3)sc2c1 (configuration not stated) | inconclusive: 3.6 nM
Cc1ccc(S(=O)(=O)NCC2CCC(C(=O)NCc3ccco3)CC2)cc1 (configuration not stated) | inconclusive: 1.1 nM
O=C(NCCCNCCCNC(=O)c1ccccn1)c1ccccn1 | inconclusive: 1.7 nM
O=c1c2cccc3c2c(nn1CN1CCOCC1)-c1ccccc1-3 | active: 13 nM
CC1=NS(=O)(=O)c2cc(Cl)ccc2N1 | inconclusive: 4.6 nM
COc1ccc(Oc2ncc3nc(-c4ccc(Cl)cc4)c(=O)n(C[C@H]4CCCO4)c3n2)cc1 | inactive
COc1cccc(-c2cc(NCc3cnc(C)cn3)ncn2)c1 | inactive
COC(=O)c1ccccc1NC(=O)Cn1c(=O)oc2ccc(Cl)cc21 | active: 770 nM
CCn1ncc(NC(=O)Nc2cccc(C(F)(F)F)c2)c1C(N)=O | inconclusive: 5.9 nM
CC(C)[C@H](NC(=O)Nc1ccc(S(N)(=O)=O)cc1)C(=O)O | inconclusive: 2.5 nM
COc1ccc2cc(CN(CCc3ccccc3)Cc3nnnn3CC3CCCO3)c(=O)[nH]c2c1 (configuration not stated) | inactive
Cc1cc(C(F)(F)F)c(C#N)c(SCC(=O)NC2CC2)n1 | inconclusive: 1.1 nM
CC1(C)Cc2c(sc(NC(=O)c3ccc(Br)o3)c2C#N)CO1 | inconclusive: 2.3 nM
CCN(CC)S(=O)(=O)c1cc(C(=O)Nc2nncs2)c(Cl)cc1Cl | inactive
Cc1cc(C)n(C(=O)CNC(=O)c2cccs2)n1 | inconclusive: 1.3 nM
COCCNC(=O)c1c[nH]c2ccc(S(=O)(=O)N3CCC4(CC3)OCCO4)cc2c1=O | inconclusive: 4.8 nM
CCc1nnc(NC(=O)c2ccc(S(=O)(=O)N3CCCCCC3)cc2)s1 | inconclusive: 2.2 nM
O=C(Cn1cnc2c(oc3ccccc32)c1=O)N1CCN(c2ccccc2)CC1 | inconclusive: 3.2 nM
CCCCN(C)CCCNC(=O)CCn1nc(-c2ccccc2)ccc1=O | inconclusive: 1.1 nM

SMILES | max dye-equivalent concentration
COc1ccc(-c2nc(-c3ccccc3OC)no2)cc1OC | inconclusive: 1.9 nM
Cc1nnc(N(Cc2ccco2)C(=O)c2ccno2)s1 | inactive
CN1CCN(c2ncc3nc(-c4cc(F)cc(F)c4)c(=O)n(C)c3n2)CC1 | inconclusive: 6.3 nM
COc1ccccc1C1C=C(c2ccc(C)cc2)Nc2nnnn21 (configuration not stated) | inconclusive: 3 nM
O=C(Nc1cccc2c1C(=O)NC2=O)c1ccc(S(=O)(=O)N2CCCC2)cc1 | active: 120 nM
CCSc1nnc(NC(=O)C(C)(C(F)(F)F)C(F)(F)F)s1 | inactive
c1coc(CNc2c3c(nc4ncnn24)CCCC3)c1 | inconclusive: 1.2 nM
COCCN(Cc1cc2cccc(C)c2[nH]c1=O)C(=O)c1ccccc1 | inconclusive: 3.4 nM
CN1C(=O)N(c2ccccc2)C(Nc2nncs2)C1(C)C (configuration not stated) | inconclusive: 1.8 nM
CCC(=O)Nc1sc2c(c1C(N)=O)CCC2 | inconclusive: 1.1 nM
CC(C)Cn1c(=O)c2c(c3ccccc31)OC(C)C(=O)N2 (configuration not stated) | inconclusive: 1.2 nM
Cc1[nH]nc2c1C(C(C)C)C(C#N)=C(N)O2 (configuration not stated) | inconclusive: 1.4 nM
C=CCn1c(=O)[nH]c2cc(C(=O)N3CCN(c4cccc(Cl)c4)CC3)ccc2c1=O | inconclusive: 1.4 nM
COc1ccc(C2C3=C(CCCC3=O)Nc3nc(C(F)(F)F)nn32)cc1OC (configuration not stated) | active: 72 nM
O=C(CSc1cc(Cl)ccc1Cl)NCC1CCCO1 (configuration not stated) | inconclusive: 1.7 nM
O=C(Nc1nc2c(s1)CCc1ccccc1-2)c1cccs1 | active: 34 nM
CSc1ccc(CN(C)CC(=O)NC(=O)NC(C)(C)C)cc1 | inconclusive: 2.8 nM
COc1ccc(-c2nc3scc(-c4ccccc4)n3n2)cc1 | inconclusive: 1.5 nM
Cn1cc[nH]c1=S | inconclusive: 1.1 nM
O=C(COc1ccccc1)Nn1cnc2ccccc21 | inconclusive: 1.1 nM
Cc1nc2cnc(N(C)C)nc2n(Cc2ccc(F)cc2)c1=O | active: 22 nM
N#CCCn1c(=O)c(-c2cc(F)cc(F)c2)nc2cnc(Nc3ccccc3)nc21 | inactive
O=C(NC12CC3CC(CC(C3)C1)C2)c1cc2nc(-c3ccco3)cc(C(F)(F)F)n2n1 | active: 12 nM

A draw from above in order of molar mass, smallest number first.
SMILES | max dye-equivalent concentration
O=C(O)c1cccnc1SCC(=O)N1CCCCCC1 | inconclusive: 1.3 nM
O=c1c2cccc3c2c(nn1CN1CCOCC1)-c1ccccc1-3 | active: 13 nM
CC1(C)Cc2c(sc(NC(=O)c3ccc(Br)o3)c2C#N)CO1 | inconclusive: 2.3 nM
COc1ccc(-c2noc(COc3ccc4ccccc4c3Br)n2)cc1OC | inconclusive: 2.7 nM
